No constants are given. Whether binding was seen depends on the method and setting. In cells and extracts the contact can be indirect. Some binding calls cover weakened binding; strength is not graded here. Where a sequence is shown, tags or fusion partners need not be part of it.
Legend:
Assay in all cases: co-IP; Hek293T cells transfected 48 h; lysis buffer 150 mM NaCl, 50 mM Tris-HCl pH 7.4, 5% glycerol, 2 mM EDTA, 1% Nonidet P-40; supernatant incubated overnight with rabbit anti-HA antibody, protein A agarose beads 2 h, 4 °C; Western blot with anti-CerS6 or anti-CerS2 antibody
[1] = biological target: T1, Hemagglutinin (HA)-tagged CerS2 (human) (UniProt Q96G23)
T1 sequence: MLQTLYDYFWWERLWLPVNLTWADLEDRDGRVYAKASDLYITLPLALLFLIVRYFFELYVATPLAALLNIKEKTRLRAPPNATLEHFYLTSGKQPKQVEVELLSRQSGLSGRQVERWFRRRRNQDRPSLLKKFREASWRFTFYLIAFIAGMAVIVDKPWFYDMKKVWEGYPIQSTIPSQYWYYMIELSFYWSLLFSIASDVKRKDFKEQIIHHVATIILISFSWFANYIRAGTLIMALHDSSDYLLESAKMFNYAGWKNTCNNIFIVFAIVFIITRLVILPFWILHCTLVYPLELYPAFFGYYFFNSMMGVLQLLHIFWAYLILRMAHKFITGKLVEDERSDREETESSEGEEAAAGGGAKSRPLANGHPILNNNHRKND

[2] = biological target: T2, CerS2^Δ335–380-HA (human) (UniProt Q96G23)
T2 sequence: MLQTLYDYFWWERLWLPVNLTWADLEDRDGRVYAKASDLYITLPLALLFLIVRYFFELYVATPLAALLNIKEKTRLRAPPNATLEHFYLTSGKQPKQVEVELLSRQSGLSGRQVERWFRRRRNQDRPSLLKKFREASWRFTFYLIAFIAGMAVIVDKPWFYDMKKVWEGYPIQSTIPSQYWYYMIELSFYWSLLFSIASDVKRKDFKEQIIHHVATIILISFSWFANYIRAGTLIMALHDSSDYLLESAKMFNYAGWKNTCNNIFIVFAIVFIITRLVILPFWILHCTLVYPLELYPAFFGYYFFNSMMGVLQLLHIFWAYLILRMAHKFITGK

[3] = biological target: T3, CerS2^Δ347–357-HA (human) (UniProt Q96G23)
T3 sequence: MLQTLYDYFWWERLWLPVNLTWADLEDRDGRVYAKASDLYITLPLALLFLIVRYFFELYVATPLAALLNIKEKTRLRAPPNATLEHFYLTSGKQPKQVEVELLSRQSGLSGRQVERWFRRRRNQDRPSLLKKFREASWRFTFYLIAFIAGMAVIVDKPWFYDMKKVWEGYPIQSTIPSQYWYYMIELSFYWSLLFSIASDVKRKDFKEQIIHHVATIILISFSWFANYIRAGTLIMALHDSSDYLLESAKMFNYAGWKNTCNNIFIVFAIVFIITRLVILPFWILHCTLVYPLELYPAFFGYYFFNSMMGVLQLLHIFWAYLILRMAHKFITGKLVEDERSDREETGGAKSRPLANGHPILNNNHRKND

[4] = biological target: T4, CerS2^Δ358–364-HA (human) (UniProt Q96G23)
T4 sequence: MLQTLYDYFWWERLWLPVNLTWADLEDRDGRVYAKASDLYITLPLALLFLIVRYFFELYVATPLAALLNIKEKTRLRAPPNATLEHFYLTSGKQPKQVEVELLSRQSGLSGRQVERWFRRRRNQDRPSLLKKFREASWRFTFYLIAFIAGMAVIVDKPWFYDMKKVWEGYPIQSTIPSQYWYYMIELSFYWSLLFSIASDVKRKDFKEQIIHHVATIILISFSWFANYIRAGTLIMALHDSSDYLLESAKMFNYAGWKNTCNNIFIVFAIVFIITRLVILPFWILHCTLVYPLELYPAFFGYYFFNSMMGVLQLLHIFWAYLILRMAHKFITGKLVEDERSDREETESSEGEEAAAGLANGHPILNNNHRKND

[5] = biological target: T5, CerS2^Δ365–371-HA (human) (UniProt Q96G23)
T5 sequence: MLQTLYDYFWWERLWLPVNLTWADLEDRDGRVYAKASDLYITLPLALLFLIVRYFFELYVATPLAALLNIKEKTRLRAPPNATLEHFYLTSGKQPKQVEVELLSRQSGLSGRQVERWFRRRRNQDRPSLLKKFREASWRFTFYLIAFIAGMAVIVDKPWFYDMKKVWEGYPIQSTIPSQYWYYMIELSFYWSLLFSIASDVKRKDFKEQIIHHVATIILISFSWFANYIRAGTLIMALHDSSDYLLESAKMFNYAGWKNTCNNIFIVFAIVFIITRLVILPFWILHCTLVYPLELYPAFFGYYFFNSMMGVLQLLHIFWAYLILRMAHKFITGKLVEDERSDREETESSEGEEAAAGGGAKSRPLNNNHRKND

B1: Flag-tagged CerS6 (enzyme, UniProt Q6ZMG9 1-384)
chain: MAGILAWFWNERFWLPHNVTWADLKNTEEATFPQAEDLYLAFPLAFCIFMVRLIFERFVAKPCAIALNIQANGPQIAPPNAILEKVFTAITKHPDEKRLEGLSKQLDWDVRSIQRWFRQRRNQEKPSTLTRFCESMWRFSFYLYVFTYGVRFLKKTPWLWNTRHCWYNYPYQPLTTDLHYYYILELSFYWSLMFSQFTDIKRKDFGIMFLHHLVSIFLITFSYVNNMARVGTLVLCLHDSADALLEAAKMANYAKFQKMCDLLFVMFAVVFITTRLGIFPLWVLNTTLFESWEIVGPYPSWWVFNLLLLLVQGLNCFWSYLIVKIACKAVSRGKVSKDDRSDIESSSDEEDSEPPGKNPHTATTTNGTSGTNGYLLTGSCSMDD
- binding [1]: binds

B2: CerS6^Δ335–384-Flag (domain or fragment, UniProt Q6ZMG9 1-334)
chain: MAGILAWFWNERFWLPHNVTWADLKNTEEATFPQAEDLYLAFPLAFCIFMVRLIFERFVAKPCAIALNIQANGPQIAPPNAILEKVFTAITKHPDEKRLEGLSKQLDWDVRSIQRWFRQRRNQEKPSTLTRFCESMWRFSFYLYVFTYGVRFLKKTPWLWNTRHCWYNYPYQPLTTDLHYYYILELSFYWSLMFSQFTDIKRKDFGIMFLHHLVSIFLITFSYVNNMARVGTLVLCLHDSADALLEAAKMANYAKFQKMCDLLFVMFAVVFITTRLGIFPLWVLNTTLFESWEIVGPYPSWWVFNLLLLLVQGLNCFWSYLIVKIACKAVSRGK
- binding [2]: binds

B3: CerS6^Δ348–361-Flag (enzyme, UniProt Q6ZMG9)
chain: MAGILAWFWNERFWLPHNVTWADLKNTEEATFPQAEDLYLAFPLAFCIFMVRLIFERFVAKPCAIALNIQANGPQIAPPNAILEKVFTAITKHPDEKRLEGLSKQLDWDVRSIQRWFRQRRNQEKPSTLTRFCESMWRFSFYLYVFTYGVRFLKKTPWLWNTRHCWYNYPYQPLTTDLHYYYILELSFYWSLMFSQFTDIKRKDFGIMFLHHLVSIFLITFSYVNNMARVGTLVLCLHDSADALLEAAKMANYAKFQKMCDLLFVMFAVVFITTRLGIFPLWVLNTTLFESWEIVGPYPSWWVFNLLLLLVQGLNCFWSYLIVKIACKAVSRGKVSKDDRSDIESSSATTTNGTSGTNGYLLTGSCSMDD
- binding [3]: binds

B4: CerS6^Δ359–365-Flag (enzyme, UniProt Q6ZMG9)
chain: MAGILAWFWNERFWLPHNVTWADLKNTEEATFPQAEDLYLAFPLAFCIFMVRLIFERFVAKPCAIALNIQANGPQIAPPNAILEKVFTAITKHPDEKRLEGLSKQLDWDVRSIQRWFRQRRNQEKPSTLTRFCESMWRFSFYLYVFTYGVRFLKKTPWLWNTRHCWYNYPYQPLTTDLHYYYILELSFYWSLMFSQFTDIKRKDFGIMFLHHLVSIFLITFSYVNNMARVGTLVLCLHDSADALLEAAKMANYAKFQKMCDLLFVMFAVVFITTRLGIFPLWVLNTTLFESWEIVGPYPSWWVFNLLLLLVQGLNCFWSYLIVKIACKAVSRGKVSKDDRSDIESSSDEEDSEPPGKNNGTSGTNGYLLTGSCSMDD
- binding [4]: binds

B5: CerS6^Δ366–372-Flag (enzyme, UniProt Q6ZMG9)
chain: MAGILAWFWNERFWLPHNVTWADLKNTEEATFPQAEDLYLAFPLAFCIFMVRLIFERFVAKPCAIALNIQANGPQIAPPNAILEKVFTAITKHPDEKRLEGLSKQLDWDVRSIQRWFRQRRNQEKPSTLTRFCESMWRFSFYLYVFTYGVRFLKKTPWLWNTRHCWYNYPYQPLTTDLHYYYILELSFYWSLMFSQFTDIKRKDFGIMFLHHLVSIFLITFSYVNNMARVGTLVLCLHDSADALLEAAKMANYAKFQKMCDLLFVMFAVVFITTRLGIFPLWVLNTTLFESWEIVGPYPSWWVFNLLLLLVQGLNCFWSYLIVKIACKAVSRGKVSKDDRSDIESSSDEEDSEPPGKNPHTATTTGYLLTGSCSMDD
- binding [5]: binds
